Data: patent US20250144228A1, “NANOBODY-DRUG ADDUCTS AND USES THEREOF” (priority 2022, published 2025)
No constants are given. Whether binding was seen depends on the method and setting. Some results given as binding are weak or reduced against the parent protein; the word gives no strength.

Protein sequences, listed by entry. Tags and fused reporters are not part of them. Lines headed by an entry give the natural chain unless they say otherwise; changes in a name come on top. Residues count along the entry.
UniProt Q8I0U8: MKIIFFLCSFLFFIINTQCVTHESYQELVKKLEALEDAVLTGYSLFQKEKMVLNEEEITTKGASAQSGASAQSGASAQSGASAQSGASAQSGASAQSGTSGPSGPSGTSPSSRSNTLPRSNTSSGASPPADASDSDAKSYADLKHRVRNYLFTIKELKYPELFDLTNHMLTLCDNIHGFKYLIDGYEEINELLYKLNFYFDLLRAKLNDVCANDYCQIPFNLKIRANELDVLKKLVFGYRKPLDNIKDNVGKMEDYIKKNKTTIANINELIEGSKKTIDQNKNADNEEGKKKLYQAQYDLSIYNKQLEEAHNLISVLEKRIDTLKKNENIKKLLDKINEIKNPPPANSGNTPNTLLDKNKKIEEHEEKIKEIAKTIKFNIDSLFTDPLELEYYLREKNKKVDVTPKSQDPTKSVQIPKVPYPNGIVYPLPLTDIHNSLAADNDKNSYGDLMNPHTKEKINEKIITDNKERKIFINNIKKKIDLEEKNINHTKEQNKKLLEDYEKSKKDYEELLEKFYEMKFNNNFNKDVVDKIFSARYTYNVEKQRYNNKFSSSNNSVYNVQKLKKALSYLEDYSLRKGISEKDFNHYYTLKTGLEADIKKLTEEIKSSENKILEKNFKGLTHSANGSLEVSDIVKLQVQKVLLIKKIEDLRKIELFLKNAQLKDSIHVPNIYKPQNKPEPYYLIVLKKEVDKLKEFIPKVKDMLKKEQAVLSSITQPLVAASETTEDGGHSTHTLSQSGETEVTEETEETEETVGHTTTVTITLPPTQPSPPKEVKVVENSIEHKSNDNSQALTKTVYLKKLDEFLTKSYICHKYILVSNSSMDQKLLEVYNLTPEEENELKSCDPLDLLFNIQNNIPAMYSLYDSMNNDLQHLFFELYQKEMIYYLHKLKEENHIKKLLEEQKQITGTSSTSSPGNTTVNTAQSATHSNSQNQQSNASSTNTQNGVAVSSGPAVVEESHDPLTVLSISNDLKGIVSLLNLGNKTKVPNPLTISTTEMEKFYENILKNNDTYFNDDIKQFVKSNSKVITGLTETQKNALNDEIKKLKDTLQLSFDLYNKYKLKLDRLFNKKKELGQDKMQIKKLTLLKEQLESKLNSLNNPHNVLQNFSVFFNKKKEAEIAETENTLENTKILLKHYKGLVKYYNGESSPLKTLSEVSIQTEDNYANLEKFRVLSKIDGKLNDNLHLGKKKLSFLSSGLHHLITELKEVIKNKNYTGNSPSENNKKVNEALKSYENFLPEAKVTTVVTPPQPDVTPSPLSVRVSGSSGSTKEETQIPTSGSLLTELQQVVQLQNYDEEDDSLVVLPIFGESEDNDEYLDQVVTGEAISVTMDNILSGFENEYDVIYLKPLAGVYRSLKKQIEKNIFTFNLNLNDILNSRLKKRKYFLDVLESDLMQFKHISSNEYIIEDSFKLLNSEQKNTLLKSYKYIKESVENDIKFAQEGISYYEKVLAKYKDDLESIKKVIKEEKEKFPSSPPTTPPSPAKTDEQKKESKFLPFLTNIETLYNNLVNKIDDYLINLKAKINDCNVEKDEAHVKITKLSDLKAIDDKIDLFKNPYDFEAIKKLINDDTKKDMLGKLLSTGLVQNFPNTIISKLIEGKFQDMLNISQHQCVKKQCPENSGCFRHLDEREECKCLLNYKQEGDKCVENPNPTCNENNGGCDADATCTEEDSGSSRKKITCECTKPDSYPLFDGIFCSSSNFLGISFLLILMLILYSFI
P. falciparum MSP-1 full length pro-peptide (p190): residues 20-1699 of Q8I0U8
P. falciparum MSP-1 subunit p83 (plate-bound, isolated): residues 20-722 of Q8I0U8
P. falciparum MSP-1 subunit p42 (plate-bound, isolated): residues 1327-1699 of Q8I0U8

Legend:
[1] = target: P. falciparum MSP-1 full length pro-peptide (p190) (Plasmodium falciparum) (UniProt Q8I0U8); assay: Western blot against full length p190
[2] = target: P. falciparum MSP-1 subunit p42 (plate-bound, isolated) (Plasmodium falciparum) (UniProt Q8I0U8); assay: Western blot against PfMSP-1 subunits
[3] = target: P. falciparum MSP-1 subunit p42 (plate-bound, isolated) (Plasmodium falciparum) (UniProt Q8I0U8); assay: ELISA on plate-bound MSP-1 subunits, biotinylated VHH, streptavidin-HRP
[4] = target: P. falciparum MSP-1 subunit p83 (plate-bound, isolated) (Plasmodium falciparum) (UniProt Q8I0U8); assay: Western blot against PfMSP-1 subunits
[5] = target: P. falciparum MSP-1 subunit p83 (plate-bound, isolated) (Plasmodium falciparum) (UniProt Q8I0U8); assay: ELISA on plate-bound MSP-1 subunits, biotinylated VHH, streptavidin-HRP

Measured: binding

B1: anti-p42 G11 VHH (P. falciparum MSP-1 specific) (VHH)
VHH: QVQLVETGGGLVQAGGSLRLSCVVSGRSLILYGMGWFRQAPGKEREFVAGIVWNGGWTYYADSVKGRFTISRDTAKNTVYLQMNSLKPEDTAVYSCAAGPGDGRRRVAPAEYNYWGQGTQVTVSS
binds: [1] | [2] | [3]

B2: anti-p42 A6 VHH (P. falciparum MSP-1 specific) (VHH)
VHH: QVQLVESGGGLVQAGGSLRLSCAASARTFSYYGAAWFRQAPGKEREFVAAVSWNGDDTYYADSVKGRFTISRDNTKNTVSLQMNALKPEDTAVYYCEAAAYGRDWRQSANYVYWGQGTQVTVSS
binds: [1] | [2] | [3]

B3: anti-p83 B4 VHH (P. falciparum MSP-1 specific) (VHH)
VHH: QLQLVESGGGLAQAGGSLRLSCAASGRTSSTKPMGWFRQAPGLEREFVASISWLGGSTLYSDSVKGRFTISRDNAKNTVYLQMNSLKSEDTAVYYCAGGTSAYSGRDSSRYEYWGQGTQVTVSS
binds: [1] | [4] | [5]
